Data as given in PubChem BioAssay AID743121 (NCATS, 2013)

Screen: 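Partners whose loss is lethal together with topoisomerase I blockade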 (primary screen)
Cells: MDA-MB-231 cells, a human breast cancer line
Knock-down reagent: single siRNA against human genes, 20 nM siRNA (0.8 pmol per well)
Time to read-out: 120 h (drug added 48 h after transfection, read 72 h later)
Conditions: camptothecin 20 nM (about EC30) for 72 h; vehicle 0.1% DMSO in parallel plates
Read-out: 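Cell viability by ATP luminescence (CellTiter-Glo) as % of non-targeting siRNA wells, and the log2 ratio of viability without drug over viability with camptothecin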
Reading the numbers: log2 vehicle/camptothecin viability: higher = stronger sensitisation to camptothecin; viability with camptothecin and viability without drug: higher = more viable cells
Rule for the call: 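Each gene scored by redundant siRNA activity (RSA) over its individual siRNA ratios; a gene is called active at p < 0.001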
In all, the deposit lists about 26,000 reagents; shown is a part drawn at random. 167 of them (0.63%) count as active. 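Calls are per gene from RSA p-values that are not deposited; an individual active-marked siRNA can sensitise only weakly.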 A number with no mark means an inactive call. Reagents against one gene are numbered here.

The first 5 entries, ahead of the listing:
| gene | reagent no. | log2 vehicle/camptothecin viability | viability with camptothecin (% of control) | viability without drug (% of control) |
| --- | --- | --- | --- | --- |
| ATP7A | 1 | 0.367 | 70.3 | 90.6 |
| ATP7A | 2 | 0.355 | 59.7 | 76.4 |
| ATP7A | 3 | -0.191 | 34.4 | 30.1 |
| ATP7A | 4 | -0.015 | 81.4 | 80.5 |
| CHRM3 | 1 | 0.103 | 74.3 | 79.7 |

The listing, from the start:
| gene | reagent no. | log2 vehicle/camptothecin viability | viability with camptothecin (% of control) | viability without drug (% of control) |
| --- | --- | --- | --- | --- |
| ATP7A | 1 | 0.367 | 70.3 | 90.6 |
| ATP7A | 2 | 0.355 | 59.7 | 76.4 |
| ATP7A | 3 | -0.191 | 34.4 | 30.1 |
| ATP7A | 4 | -0.015 | 81.4 | 80.5 |
| CHRM3 | 1 | 0.103 | 74.3 | 79.7 |
| CHRM3 | 2 | -0.135 | 89.6 | 81.7 |
| CHRM3 | 3 | -0.431 | 37.6 | 27.9 |
| CHRM3 | 4 | 0.032 | 83.7 | 85.5 |
| ROS1 | 1 | -0.214 | 97.2 | 83.8 |
| ROS1 | 2 | -0.819 | 61.1 | 34.6 |
| ROS1 | 3 | -0.073 | 97.9 | 93 |
| ROS1 | 4 | 0.444 | 34.3 | 46.6 |
| NFKBIZ | 1 | -0.439 | 53.2 | 39.3 |
| NFKBIZ | 2 | -0.274 | 68.5 | 56.6 |
| NFKBIZ | 3 | -0.288 | 95.8 | 78.5 |
| TUBB1 | 1 | 0.39 | 66.5 | 87.1 |
| TUBB1 | 2 | -0.404 | 95 | 71.8 |
| TUBB1 | 3 | -0.33 | 78.3 | 62.3 |
| TUBB1 | 4 | -0.148 | 52.6 | 47.5 |
| MMP2 | 1 | -0.421 | 86.1 | 64.3 |
| MMP2 | 2 | -0.121 | 77.6 | 71.3 |
| MMP2 | 3 | -0.0552 | 43.4 | 41.8 |
| MMP2 | 4 | -0.182 | 102 | 90.1 |
| HGS | 1 | 0.353 | 30 | 38.3 |
| HGS | 2 | -0.395 | 94.9 | 72.1 |
| HGS | 3 | -0.423 | 88.4 | 65.9 |
| HGS | 4 | 0.123 | 69.1 | 75.3 |
| GNAI2 | 1 | -0.697 | 78.2 | 48.2 |
| GNAI2 | 2 | -0.36 | 55.3 | 43.1 |
| GNAI2 | 3 | -0.104 | 96.3 | 89.6 |
| GNAI2 | 4 | -0.311 | 80.4 | 64.8 |
| LDAH | 1 | -0.09 | 102 | 96 |
| LDAH | 2 | -0.377 | 69.2 | 53.3 |
| LDAH | 3 | -0.246 | 78.7 | 66.4 |
| LDAH | 4 | 0.2 | 72.4 | 83.2 |
| POLG | 1 | -0.0137 | 88.7 | 87.9 |
| POLG | 2 | -0.00897 | 83.5 | 82.9 |
| POLG | 3 | 0.333 | 63.9 | 80.5 |
| POLG | 4 | -0.259 | 81.2 | 67.9 |
| MAD2L1 | 1 | -0.349 | 74.9 | 58.8 |
| MAD2L1 | 2 | -0.402 | 78.4 | 59.3 |
| MAD2L1 | 3 | -0.453 | 98.3 | 71.8 |
| MAD2L1 | 4 | -0.696 | 80.2 | 49.5 |
| KIF16B | 1 | 0.0439 | 85.3 | 88 |
| KIF16B | 2 | 0.00147 | 82.5 | 82.6 |
| KIF16B | 3 | 0.0965 | 86.1 | 92.1 |
| KIF16B | 4 | 0.35 | 64.4 | 82.1 |
